Patent US20070072815A1, “Methods and kits to increase the efficiency of oligonucleotide-directed nucleic acid sequence alteration” (priority 2004, published 2007)
Some of these results come from one statement about several compounds together.

System: DLD-1-1 cells
Test: Cell viability / cell death by propidium iodide FACS
Conditions: highest doses of HU or VP16, 24 hours prior to electroporation

Compound: COc1cc([C@@H]2c3cc4c(cc3[C@@H](O[C@@H]3O[C@@H]5CO[C@@H](C)O[C@H]5[C@H](O)[C@H]3O)[C@H]3COC(=O)[C@H]23)OCO4)cc(OC)c1O [VP16, 4′-demethylepipodophyllotoxin-9-(4,6-O-ethylidene-beta-D-glucopyranoside)]
- cells remaining viable: ≥ 80%
